In this assay the target is T1, soluble and secreted FUT8 (sFUT8) enzyme (aa 87-575; UniProtKB #Q9BYC5) with C-terminal polyhistidine tag (UniProt Q9BYC5).
T1 sequence: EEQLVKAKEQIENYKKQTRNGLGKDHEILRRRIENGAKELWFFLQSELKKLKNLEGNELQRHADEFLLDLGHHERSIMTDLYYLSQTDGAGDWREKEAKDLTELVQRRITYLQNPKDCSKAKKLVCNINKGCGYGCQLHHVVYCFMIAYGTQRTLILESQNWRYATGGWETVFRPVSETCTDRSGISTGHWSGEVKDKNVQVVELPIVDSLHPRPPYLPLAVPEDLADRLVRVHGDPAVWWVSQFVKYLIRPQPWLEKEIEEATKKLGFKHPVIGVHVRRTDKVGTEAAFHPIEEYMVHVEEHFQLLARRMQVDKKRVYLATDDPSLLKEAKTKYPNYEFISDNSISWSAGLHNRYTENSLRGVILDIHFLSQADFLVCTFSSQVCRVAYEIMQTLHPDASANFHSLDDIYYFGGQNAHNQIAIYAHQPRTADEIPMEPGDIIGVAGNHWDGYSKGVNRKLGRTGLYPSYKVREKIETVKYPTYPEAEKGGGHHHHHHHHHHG
The assay is described as follows: ELISA, sFUT8 coated on the plate. (In general: In an ELISA, binding on a coated surface is turned into a signal by an enzyme label.)

Results are given in words; binding and its absence hold for the method and conditions named. Some results given as binding are weak or reduced against the parent protein; the word gives no strength. Sequences can lack the tags named with a protein.

B1: anti-FUT8 monoclonal antibody 1H9 (hybridoma) (antibody, V domains shown)
VH: EVQLQQSGPELVKPGASVKMSCKASGYIFTDYVMHWVKQSNGKSLEWIGYINPYNDYSNYNQKFKGKATLTVDKSSNTAYMQLNSLTSEDSAVYFCARSGDVWLAYWGQGTLVTISA
VL: DIVLTQSPASLAISLGQRATISCRASKSVSTSGYSYMHWYQQKPGQPPRLLIYLASNLESGVPARFSGSGSGTDFTLNIHPVEEEDGATYYCQHSRELPWTFGGGT
With B1, the binding result was “binds”.

B2: anti-FUT8 monoclonal antibody 1D2 (hybridoma) (antibody, V domains shown)
VH: QVQLKESGPGLVAPSQSLSITCTVSGFSLTGYGVNWVRQPPGKGLEWLGMIWGDGSTDYNSALKSRLSISKDNSKSQVFLKMNSLQTDDTASYYCARDFYDGYLYAMDYWGQGTSVTVSSAS
VL: DIVMTQSQKFMSTSLGDRVSVTCKASQNVGSYVAWYQQKPGQSPKALIYSASYRYSGVPDRFAGSGSGTDFTLTISNVQSEDLAEYFCQQYYTYPYTFGGGTWSTRLASWAFRSL
In the case of B2, the binding result was “binds”.

For the origin of these results see US20220033519A1 (NATIONAL RESEARCH COUNCIL OF CANADA, published 2022).
